Laboratory results published in patent US10525159B2, “Liquid preparation for contact lenses comprising hydrolyzed hyaluronic acid derivative and cationic bactericide” (OPHTECS CORPORATION, priority 2016, dated 2020).

Experiment: Absorptivity of fluorescence-labeled sample to SCL using fluorescence microscope (balafilcon A)
Settings: 50 ppm in PBS, FIG. 2

hydrolyzed alkyl (C12-13) glyceryl hyaluronate [hydrolyzed hyaluronic acid derivative]
relative fluorescence intensity 13 days after immersion compared with 1 day after immersion: significantly different
relative fluorescence intensity 1 day after immersion, compared with Na hyaluronate and hydrolyzed hyaluronic acid (risk ratio of less than 5%): significantly different
relative fluorescence intensity 13 days after immersion, compared with Na hyaluronate and hydrolyzed hyaluronic acid (risk ratio of less than 5%): significantly different

hydrolyzed hyaluronic acid [reference compound]
relative fluorescence intensity 13 days after immersion compared with 1 day after immersion: not significantly different

sodium hyaluronate [Na hyaluronate, reference compound]
relative fluorescence intensity 13 days after immersion compared with 1 day after immersion: not significantly different
